# Results published in the supplement of paper PMC7666118.
# Chains of the proteins cited; added tags and fusions are not shown. Lines headed by an entry give the natural chain unless they say otherwise; changes in a name come on top.
# UniProt O75880: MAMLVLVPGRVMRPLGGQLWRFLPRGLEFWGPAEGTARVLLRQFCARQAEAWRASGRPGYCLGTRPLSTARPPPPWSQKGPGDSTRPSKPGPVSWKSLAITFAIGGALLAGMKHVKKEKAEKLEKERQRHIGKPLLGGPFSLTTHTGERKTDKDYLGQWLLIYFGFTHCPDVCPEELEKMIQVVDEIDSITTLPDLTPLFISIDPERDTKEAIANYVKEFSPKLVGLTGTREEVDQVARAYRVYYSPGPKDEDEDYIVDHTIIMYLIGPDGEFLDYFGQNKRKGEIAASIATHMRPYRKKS
# UniProt Q7L4I2: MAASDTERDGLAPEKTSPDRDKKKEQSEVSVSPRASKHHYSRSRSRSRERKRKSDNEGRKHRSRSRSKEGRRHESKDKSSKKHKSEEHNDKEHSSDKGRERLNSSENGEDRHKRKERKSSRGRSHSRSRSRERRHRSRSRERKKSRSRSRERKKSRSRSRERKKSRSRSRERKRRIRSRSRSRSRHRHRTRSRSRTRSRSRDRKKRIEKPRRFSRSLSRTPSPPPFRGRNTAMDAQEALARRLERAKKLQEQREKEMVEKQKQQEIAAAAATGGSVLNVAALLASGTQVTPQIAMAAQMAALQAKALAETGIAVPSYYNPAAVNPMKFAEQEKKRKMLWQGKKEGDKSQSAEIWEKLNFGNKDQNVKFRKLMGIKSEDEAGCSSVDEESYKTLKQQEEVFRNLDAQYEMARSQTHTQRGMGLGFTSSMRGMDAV
# UniProt Q92791: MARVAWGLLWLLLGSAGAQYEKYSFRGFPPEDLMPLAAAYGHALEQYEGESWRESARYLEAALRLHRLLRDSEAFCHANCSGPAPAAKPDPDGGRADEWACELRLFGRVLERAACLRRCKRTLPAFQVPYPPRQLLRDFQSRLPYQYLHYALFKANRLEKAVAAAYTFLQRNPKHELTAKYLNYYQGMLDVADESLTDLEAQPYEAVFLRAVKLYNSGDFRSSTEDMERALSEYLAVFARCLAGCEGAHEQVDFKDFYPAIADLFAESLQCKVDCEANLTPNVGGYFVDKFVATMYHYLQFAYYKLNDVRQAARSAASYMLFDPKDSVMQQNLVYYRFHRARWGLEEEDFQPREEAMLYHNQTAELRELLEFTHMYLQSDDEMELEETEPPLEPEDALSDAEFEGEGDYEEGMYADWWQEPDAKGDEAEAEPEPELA
# UniProt Q9Y6Y8: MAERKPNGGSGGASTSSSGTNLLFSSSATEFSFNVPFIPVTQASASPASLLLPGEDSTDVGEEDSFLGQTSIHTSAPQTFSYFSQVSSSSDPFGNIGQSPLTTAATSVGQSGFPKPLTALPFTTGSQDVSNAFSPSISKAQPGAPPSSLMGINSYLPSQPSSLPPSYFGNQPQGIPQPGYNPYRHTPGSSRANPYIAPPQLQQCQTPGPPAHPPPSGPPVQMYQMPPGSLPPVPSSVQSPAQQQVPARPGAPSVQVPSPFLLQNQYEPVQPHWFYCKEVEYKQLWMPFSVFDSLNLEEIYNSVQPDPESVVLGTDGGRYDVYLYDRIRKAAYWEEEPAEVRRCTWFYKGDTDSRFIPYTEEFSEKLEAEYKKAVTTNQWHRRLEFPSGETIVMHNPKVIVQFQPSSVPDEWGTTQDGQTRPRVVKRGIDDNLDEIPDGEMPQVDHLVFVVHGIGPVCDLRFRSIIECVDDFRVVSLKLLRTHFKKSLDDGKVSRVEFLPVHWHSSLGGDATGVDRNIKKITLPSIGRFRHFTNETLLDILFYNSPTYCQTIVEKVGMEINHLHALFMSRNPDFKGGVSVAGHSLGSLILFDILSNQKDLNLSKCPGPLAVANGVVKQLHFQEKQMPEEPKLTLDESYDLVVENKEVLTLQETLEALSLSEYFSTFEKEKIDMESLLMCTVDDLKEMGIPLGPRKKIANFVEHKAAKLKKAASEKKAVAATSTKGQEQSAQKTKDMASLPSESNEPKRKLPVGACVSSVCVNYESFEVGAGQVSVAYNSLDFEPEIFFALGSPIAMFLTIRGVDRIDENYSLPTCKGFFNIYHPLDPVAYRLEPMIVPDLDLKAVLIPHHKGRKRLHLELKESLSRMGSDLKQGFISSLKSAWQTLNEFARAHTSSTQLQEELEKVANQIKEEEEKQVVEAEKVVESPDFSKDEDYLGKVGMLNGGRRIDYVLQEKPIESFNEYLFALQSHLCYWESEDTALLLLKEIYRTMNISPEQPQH
# UniProt P05109: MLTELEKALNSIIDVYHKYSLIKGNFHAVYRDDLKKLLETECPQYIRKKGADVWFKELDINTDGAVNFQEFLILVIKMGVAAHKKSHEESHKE
# UniProt Q9BY50: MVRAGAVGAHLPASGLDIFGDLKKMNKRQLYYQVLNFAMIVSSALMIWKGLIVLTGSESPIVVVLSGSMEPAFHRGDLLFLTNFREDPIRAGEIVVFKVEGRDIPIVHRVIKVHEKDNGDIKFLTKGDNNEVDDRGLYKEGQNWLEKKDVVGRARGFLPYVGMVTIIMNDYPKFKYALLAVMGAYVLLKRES
# The list shows a part of the results.
# Compound: COc1ccc(Cn2ccc3cc(C)c(C(=O)NO)cc32)cc1
# Test: dose-dependent thermal stabilisation call (2D-TPP, DLPTP, 10% FDR) (binary (1 = stabilised)); higher = stabilised by the compound
# Conditions: system: HL-60 intact cells; concentration range 0.04-10 µM
# Protocol: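 2D thermal proteome profiling in intact HL-60 cells treated with BRD-3811 (0, 0.04, 0.29, 2, 10 uM) for 90 min at 37 C, then heated 3 min at one of 12 temperatures (42-63.9 C). Soluble protein was quantified by TMT10 MS. The value is the DLPTP call of the paper: dose-dependent thermal stabilisation over all temperatures at 10% FDR (F-test of a dose-response against a flat model); one experiment, one call per tested protein.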
row,Target,dose-dependent thermal stabilisation call
1,SCO1 (UniProt O75880),inactive: 0
2,RSRC2 (UniProt Q7L4I2),inactive: 0
3,RPL18A (UniProt Q02543),inactive: 0
4,RPS7 (UniProt P62081),inactive: 0
5,SC65 (UniProt Q92791),inactive: 0
6,SEC23IP (UniProt Q9Y6Y8),inactive: 0
7,S100A8 (UniProt P05109),inactive: 0
8,RPL27 (UniProt P61353),inactive: 0
9,SEC11C (UniProt Q9BY50),inactive: 0

# Copied from above, nos. 6–7
row,Target,dose-dependent thermal stabilisation call
6,SEC23IP (UniProt Q9Y6Y8),inactive: 0
7,S100A8 (UniProt P05109),inactive: 0
